In publication PMC6446209:
Results are given in words; binding and its absence hold for the method and conditions named. For some of these results: Binding seen in cells or lysates may run through a third protein. Some entries that bind do so weakly or less than the wild type. For some of these results: Sequences can lack the tags named with a protein. One block for each molecule: values may come before it.

The chains behind the UniProt entries cited, without tags or fusion partners.
UniProt Q8TD43: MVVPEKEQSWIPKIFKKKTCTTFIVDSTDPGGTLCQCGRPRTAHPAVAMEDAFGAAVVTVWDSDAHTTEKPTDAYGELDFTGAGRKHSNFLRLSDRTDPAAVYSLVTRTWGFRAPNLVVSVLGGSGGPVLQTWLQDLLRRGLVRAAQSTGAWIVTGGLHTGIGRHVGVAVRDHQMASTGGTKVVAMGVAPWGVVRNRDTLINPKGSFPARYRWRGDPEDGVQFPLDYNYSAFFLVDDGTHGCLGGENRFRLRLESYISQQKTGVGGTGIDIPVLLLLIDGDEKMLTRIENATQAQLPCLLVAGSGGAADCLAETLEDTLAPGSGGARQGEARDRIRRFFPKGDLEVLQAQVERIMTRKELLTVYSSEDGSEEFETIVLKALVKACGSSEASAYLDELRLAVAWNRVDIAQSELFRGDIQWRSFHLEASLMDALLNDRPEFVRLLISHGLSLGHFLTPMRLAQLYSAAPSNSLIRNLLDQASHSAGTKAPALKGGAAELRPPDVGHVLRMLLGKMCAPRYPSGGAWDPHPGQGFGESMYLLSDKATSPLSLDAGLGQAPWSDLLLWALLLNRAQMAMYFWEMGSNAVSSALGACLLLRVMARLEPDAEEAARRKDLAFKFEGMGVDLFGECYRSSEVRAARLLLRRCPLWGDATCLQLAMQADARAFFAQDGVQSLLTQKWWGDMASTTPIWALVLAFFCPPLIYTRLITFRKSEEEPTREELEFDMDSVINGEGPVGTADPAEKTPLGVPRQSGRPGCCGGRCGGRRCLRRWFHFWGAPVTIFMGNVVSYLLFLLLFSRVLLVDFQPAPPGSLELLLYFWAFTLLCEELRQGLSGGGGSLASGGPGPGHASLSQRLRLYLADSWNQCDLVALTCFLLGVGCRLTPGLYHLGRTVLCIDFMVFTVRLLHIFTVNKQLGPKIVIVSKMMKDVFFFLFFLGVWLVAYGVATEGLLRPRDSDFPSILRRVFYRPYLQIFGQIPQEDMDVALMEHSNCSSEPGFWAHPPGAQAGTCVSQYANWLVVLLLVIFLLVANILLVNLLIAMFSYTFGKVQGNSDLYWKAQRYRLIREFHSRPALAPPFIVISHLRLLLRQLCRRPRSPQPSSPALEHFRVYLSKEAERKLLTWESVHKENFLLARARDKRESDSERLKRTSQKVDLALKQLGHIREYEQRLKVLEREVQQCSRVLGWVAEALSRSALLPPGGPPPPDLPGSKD
UniProt Q09428: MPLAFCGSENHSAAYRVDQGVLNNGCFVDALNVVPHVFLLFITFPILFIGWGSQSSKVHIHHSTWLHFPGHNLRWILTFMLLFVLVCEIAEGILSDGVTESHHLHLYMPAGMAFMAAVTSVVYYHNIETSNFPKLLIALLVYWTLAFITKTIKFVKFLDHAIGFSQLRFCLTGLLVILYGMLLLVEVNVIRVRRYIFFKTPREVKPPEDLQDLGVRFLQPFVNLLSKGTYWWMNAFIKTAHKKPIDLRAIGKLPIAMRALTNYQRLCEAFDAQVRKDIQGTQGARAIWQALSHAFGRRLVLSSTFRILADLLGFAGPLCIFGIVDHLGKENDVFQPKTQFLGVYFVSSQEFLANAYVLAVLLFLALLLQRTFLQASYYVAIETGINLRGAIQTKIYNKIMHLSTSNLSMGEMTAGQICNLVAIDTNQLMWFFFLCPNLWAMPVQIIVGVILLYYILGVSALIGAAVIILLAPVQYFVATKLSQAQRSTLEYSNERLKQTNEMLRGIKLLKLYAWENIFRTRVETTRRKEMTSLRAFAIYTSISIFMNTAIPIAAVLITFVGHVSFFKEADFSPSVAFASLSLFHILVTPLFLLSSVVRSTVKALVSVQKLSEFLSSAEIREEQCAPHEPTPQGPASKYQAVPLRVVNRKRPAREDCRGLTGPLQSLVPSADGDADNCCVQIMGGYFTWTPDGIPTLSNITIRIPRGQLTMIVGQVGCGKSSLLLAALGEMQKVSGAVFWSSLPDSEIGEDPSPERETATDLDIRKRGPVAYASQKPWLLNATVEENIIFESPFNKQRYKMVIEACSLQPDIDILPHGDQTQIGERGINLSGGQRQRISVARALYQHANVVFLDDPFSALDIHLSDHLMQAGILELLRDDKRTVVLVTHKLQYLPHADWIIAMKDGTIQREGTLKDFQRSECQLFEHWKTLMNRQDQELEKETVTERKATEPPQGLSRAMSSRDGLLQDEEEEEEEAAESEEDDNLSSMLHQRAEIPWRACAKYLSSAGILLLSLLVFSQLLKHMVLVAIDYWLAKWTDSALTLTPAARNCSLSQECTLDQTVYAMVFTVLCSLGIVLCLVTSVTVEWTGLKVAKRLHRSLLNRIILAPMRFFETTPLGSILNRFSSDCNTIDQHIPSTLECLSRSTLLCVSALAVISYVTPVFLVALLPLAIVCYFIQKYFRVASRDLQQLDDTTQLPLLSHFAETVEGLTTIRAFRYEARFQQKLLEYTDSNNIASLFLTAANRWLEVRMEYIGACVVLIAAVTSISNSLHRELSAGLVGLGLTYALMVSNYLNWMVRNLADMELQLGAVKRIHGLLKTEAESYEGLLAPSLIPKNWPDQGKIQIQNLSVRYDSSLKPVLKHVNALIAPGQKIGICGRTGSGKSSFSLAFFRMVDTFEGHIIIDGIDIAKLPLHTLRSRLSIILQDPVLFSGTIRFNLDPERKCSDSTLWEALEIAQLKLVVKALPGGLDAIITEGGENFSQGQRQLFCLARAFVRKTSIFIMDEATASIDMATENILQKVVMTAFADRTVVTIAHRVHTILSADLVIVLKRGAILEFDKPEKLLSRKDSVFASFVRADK

Columns and labels:
[1] = target: T1, KIR6.2 (human (endogenous in brain tissue)) (UniProt Q14654); experiment: FRET or BRET; antibody-based FRET (immunoFRET) on fixed cryosections of human contusion-TBI brain; two primary antibodies overnight at 4°C, CY3- and CY5-labelled secondary antibodies; laser scanning microscope
T1 sequence: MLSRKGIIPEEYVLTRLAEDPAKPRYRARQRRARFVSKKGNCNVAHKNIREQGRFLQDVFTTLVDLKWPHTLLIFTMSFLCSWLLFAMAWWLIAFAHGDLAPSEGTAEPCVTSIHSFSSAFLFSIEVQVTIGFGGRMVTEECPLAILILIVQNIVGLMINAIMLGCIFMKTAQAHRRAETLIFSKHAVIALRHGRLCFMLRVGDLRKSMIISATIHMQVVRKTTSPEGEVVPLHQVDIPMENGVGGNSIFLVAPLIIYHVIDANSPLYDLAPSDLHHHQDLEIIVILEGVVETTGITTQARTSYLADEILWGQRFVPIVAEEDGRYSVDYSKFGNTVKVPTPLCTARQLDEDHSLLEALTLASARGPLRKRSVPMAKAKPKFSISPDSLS

[2] = target: transient receptor potential cation channel subfamily M member 4 (TRPM4) (human (endogenous in brain tissue)) (UniProt Q8TD43); experiment: as above
[3] = target: myc-KIR6.2 (mouse) (UniProt Q61743); experiment: immunoblot of SDS gel bands (monomer and multimers); whole-cell lysate or anti-myc immunoprecipitate of transfected COS-7 cells, immunoblotted with anti-myc antibody
[4] = target: myc-KIR6.1 (mouse) (UniProt P97794); experiment: as above

binding [1]: binds
Molecule: sulfonylurea receptor 1 (SUR1) (from UniProt Q09428 1-1581)
binding [2]: binds

binding [3]: binds
B1: myc-KIR6.2 (protein, UniProt Q61743 1-390)
chain: MLSRKGIIPEEYVLTRLAEDPAEPRYRTRERRARFVSKKGNCNVAHKNIREQGRFLQDVFTTLVDLKWPHTLLIFTMSFLCSWLLFAMVWWLIAFAHGDLAPGEGTNVPCVTSIHSFSSAFLFSIEVQVTIGFGGRMVTEECPLAILILIVQNIVGLMINAIMLGCIFMKTAQAHRRAETLIFSKHAVITLRHGRLCFMLRVGDLRKSMIISATIHMQVVRKTTSPEGEVVPLHQVDIPMENGVGGNGIFLVAPLIIYHVIDSNSPLYDLAPSDLHHHQDLEIIVILEGVVETTGITTQARTSYLADEILWGQRFVPIVAEEDGRYSVDYSKFGNTIKVPTPLCTARQLDEDRSLLDALTLASSRGPLRKRSVAVAKAKPKFSISPDSLS

binding [4]: binds
B2: myc-KIR6.1 (protein, UniProt P97794 1-424)
chain: MLARKSIIPEEYVLARIAAENLRKPRIRDRLPKARFIAKSGACNLAHKNIREQGRFLQDIFTTLVDLKWRHTLVIFTMSFLCSWLLFAIMWWLVAFAHGDIYAYMEKGTMEKSGLESAVCVTNVRSFTSAFLFSIEVQVTIGFGGRMMTEECPLAITVLILQNIVGLIINAVMLGCIFMKTAQAHRRAETLIFSRHAVIAVRNGKLCFMFRVGDLRKSMIISASVRIQVVKKTTTPEGEVVPIHQQDIPVDNPIESNNIFLVAPLIICHVIDKRSPLYDISATDLANQDLEVIVILEGVVETTGITTQARTSYIAEEIQWGHRFVSIVTEEEGVYSVDYSKFGNTVRVAAPRCSARELDEKPSILIQTLQKSELSHQNSLRKRNSMRRNNSMRRNNSIRRNNSSLMVPKVQFMTPEGNQCPSES
